Laboratory results taken from patent US11938195B2, “Upconversion nanoparticle peptide conjugates” (BP InnoMed Limited, priority 2021, dated 2024).

System: HK1-LMP1 cells
Assay: Two-photon confocal imaging, HK1-LMP1
Assay type: cell-based
Settings: 30 mg/mL, 980 nm excitation, up to 24 h

Row | Substance | Sub-cellular fluorescence signal
1 | UCNP-P7: UCNP is NaGdF4:Yb^3+, Er^3+@NaGdF4 and the plurality of polypeptides is Ahx-FWLYGGRrRKGGYFMVF (SEQ ID NO: 7) | maintained even after 24 h incubation
2 | UCNP-P6: UCNP is NaGdF4:Yb^3+, Er^3+@NaGdF4 and the plurality of polypeptides is Ahx-RrRKGGYFMVFGGFWLY (SEQ ID NO: 6) | maintained even after 24 h incubation
3 | UCNP-P5: UCNP is NaGdF4:Yb^3+, Er^3+@NaGdF4 and plurality of polypeptides is Ahx-YFMVFGGRrRKGGFWLY (SEQ ID NO: 5), pH-sensitive imine linker | increased fluorescent signals with similar patterns
